3 substances from patent US5252464 (dated 1993) can be followed below.

The series can be described thus: general procedure: solution-phase peptide synthesis; DCC/HONSu. Conditions: acetate.

No end group written: not given here.

Turning to DSDPR-OEt, under “coupling step”, the “final HPLC purity” value is recorded as 97.1% and the step yield came to 84%.
Consider H-Asp-Ser-Asp-Pro-Arg-OH, for which, under “late stage modification step”, the “final HPLC purity” value is given as 98.5% and the step yield was 80.1%.
Consider Ser-Asp-Pro-Arg-OEt, 2xCH3 COOH, for which, for the setting “coupling step”, the “final HPLC purity” value amounted to 96.9% and the step yield was 80%.
